Measured values reported in PMC10269652.
Results are given in words; binding and its absence hold for the method and conditions named. Binding seen in cells or lysates may run through a third protein. A result given as binding can be weak or reduced; the word gives no strength. Where a sequence is shown, tags or fusion partners need not be part of it.

Sequences of proteins named here, by UniProt entry; tags and fusion partners are left off. A change or cut given only in a name is not applied to a line headed by its entry.
UniProt P02919: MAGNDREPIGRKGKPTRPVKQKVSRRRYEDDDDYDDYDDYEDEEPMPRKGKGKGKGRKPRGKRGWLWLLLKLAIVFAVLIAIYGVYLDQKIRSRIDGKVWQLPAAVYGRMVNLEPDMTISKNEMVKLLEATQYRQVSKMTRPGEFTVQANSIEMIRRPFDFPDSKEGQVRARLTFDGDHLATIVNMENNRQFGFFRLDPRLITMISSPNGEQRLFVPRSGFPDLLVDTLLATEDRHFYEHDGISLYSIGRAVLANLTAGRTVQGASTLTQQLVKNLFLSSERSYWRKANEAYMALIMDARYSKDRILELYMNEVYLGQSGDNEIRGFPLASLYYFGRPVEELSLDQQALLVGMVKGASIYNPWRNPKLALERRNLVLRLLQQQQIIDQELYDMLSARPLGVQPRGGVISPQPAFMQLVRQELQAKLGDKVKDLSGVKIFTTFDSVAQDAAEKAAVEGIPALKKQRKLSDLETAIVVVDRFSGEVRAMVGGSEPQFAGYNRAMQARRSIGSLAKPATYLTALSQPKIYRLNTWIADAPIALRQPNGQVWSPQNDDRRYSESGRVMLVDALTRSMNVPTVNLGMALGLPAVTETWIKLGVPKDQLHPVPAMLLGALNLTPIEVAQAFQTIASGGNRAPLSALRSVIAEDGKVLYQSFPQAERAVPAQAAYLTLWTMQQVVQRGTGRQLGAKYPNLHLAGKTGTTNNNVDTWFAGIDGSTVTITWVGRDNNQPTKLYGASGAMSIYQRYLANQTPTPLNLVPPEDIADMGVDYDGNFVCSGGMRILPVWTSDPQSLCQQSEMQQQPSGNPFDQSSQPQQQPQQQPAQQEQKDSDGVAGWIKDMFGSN

What was measured:
[1] = molecular target: T1, His-tagged DacC (pET28a) (E. coli) (UniProt P08506); experiment: pull-down; supernatant of ER2566 cells with nontagged PBP1b mixed with supernatant of ER2566 cells with His-tagged DD-CPase; Talon metal affinity resin; binding buffer at pH 9.0, 4°C; eluate on gel, Coomassie stain
T1 sequence: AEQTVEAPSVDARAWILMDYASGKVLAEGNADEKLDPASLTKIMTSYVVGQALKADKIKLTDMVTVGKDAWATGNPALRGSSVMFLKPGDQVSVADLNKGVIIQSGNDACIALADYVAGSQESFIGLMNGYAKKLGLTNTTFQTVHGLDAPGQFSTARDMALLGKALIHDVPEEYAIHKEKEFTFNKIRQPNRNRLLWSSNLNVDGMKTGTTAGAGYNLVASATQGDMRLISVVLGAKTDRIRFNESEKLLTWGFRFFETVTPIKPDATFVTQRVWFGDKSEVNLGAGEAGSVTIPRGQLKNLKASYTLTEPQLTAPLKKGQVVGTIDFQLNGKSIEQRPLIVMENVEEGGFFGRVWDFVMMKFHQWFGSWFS

[2] = molecular target: T2, His-tagged DacA (pET28a) (E. coli) (UniProt P0AEB2); experiment: as above
T2 sequence: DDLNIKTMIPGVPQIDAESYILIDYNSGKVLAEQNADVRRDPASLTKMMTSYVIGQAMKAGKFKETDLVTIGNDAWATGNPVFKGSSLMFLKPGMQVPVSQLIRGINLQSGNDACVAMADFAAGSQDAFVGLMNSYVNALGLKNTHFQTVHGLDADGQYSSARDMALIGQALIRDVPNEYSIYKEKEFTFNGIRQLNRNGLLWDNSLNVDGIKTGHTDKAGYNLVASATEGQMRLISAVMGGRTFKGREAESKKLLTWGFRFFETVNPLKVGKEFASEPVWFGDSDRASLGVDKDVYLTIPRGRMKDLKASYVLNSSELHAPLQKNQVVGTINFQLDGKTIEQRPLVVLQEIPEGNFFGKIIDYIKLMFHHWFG

[3] = molecular target: T1, His-tagged DacC (pET28a) (E. coli); experiment: pull-down; supernatant of ER2566 cells with nontagged PBP1b mixed with supernatant of ER2566 cells with His-tagged DD-CPase; Talon metal affinity resin; binding buffer at pH 8.0, 4°C; eluate on gel, Coomassie stain
[4] = molecular target: T2, His-tagged DacA (pET28a) (E. coli); experiment: as above

Measured: binding

nontagged PBP1b (pET24a) (from UniProt P02919) (enzyme)
binds: all assays above
